# Experimental data: paper PMC8782528
# T1: Epstein-Barr virus (EBV) BGLF2 protein, FLAG-tagged (Epstein-Barr virus) (UniProt P0CK53)
# T1 sequence: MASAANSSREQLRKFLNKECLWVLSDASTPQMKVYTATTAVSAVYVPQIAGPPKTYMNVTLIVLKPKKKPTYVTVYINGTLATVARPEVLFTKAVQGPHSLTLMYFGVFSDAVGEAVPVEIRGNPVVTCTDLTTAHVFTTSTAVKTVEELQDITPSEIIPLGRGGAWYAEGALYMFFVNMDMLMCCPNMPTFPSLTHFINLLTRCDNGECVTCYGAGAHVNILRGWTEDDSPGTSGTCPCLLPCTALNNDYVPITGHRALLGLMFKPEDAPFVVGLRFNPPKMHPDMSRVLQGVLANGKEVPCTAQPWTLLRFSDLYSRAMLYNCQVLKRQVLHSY
# B1: ZNF598 (protein, UniProt Q86UK7 1-904)
# chain: MAAAGGAEGRRAALEAAAAAAPERGGGSCVLCCGDLEATALGRCDHPVCYRCSTKMRVLCEQRYCAVCREELRQVVFGKKLPAFATIPIHQLQHEKKYDIYFADGKVYALYRQLLQHECPRCPELPPFSLFGDLEQHMRRQHELFCCRLCLQHLQIFTYERKWYSRKDLARHRMQGDPDDTSHRGHPLCKFCDERYLDNDELLKHLRRDHYFCHFCDSDGAQDYYSDYAYLREHFREKHFLCEEGRCSTEQFTHAFRTEIDLKAHRTACHSRSRAEARQNRHIDLQFSYAPRHSRRNEGVVGGEDYEEVDRYSRQGRVARAGTRGAQQSRRGSWRYKREEEDREVAAAVRASVAAQQQEEARRSEDQEEGGRPKKEEAAARGPEDPRGPRRSPRTQGEGPGPKETSTNGPVSQEAFSVTGPAAPGCVGVPGALPPPSPKLKDEDFPSLSASTSSSCSTAATPGPVGLALPYAIPARGRSAFQEEDFPALVSSVPKPGTAPTSLVSAWNSSSSSKKVAQPPLSAQATGSGQPTRKAGKGSRGGRKGGPPFTQEEEEDGGPALQELLSTRPTGSVSSTLGLASIQPSKVGKKKKVGSEKPGTTLPQPPPATCPPGALQAPEAPASRAEGPVAVVVNGHTEGPAPARSAPKEPPGLPRPLGSFPCPTPQEDFPALGGPCPPRMPPPPGFSAVVLLKGTPPPPPPGLVPPISKPPPGFSGLLPSPHPACVPSPATTTTTKAPRLLPAPRAYLVPENFRERNLQLIQSIRDFLQSDEARFSEFKSHSGEFRQGLISAAQYYKSCRDLLGENFQKVFNELLVLLPDTAKQQELLSAHTDFCNREKPLSTKSKKNKKSAWQATTQQAGLDCRVCPTCQQVLAHGDASSHQALHAARDDDFPSLQAIARIIT
# B2: NFATC4 (protein, UniProt Q14934 1-902)
# chain: MGAASCEDEELEFKLVFGEEKEAPPLGAGGLGEELDSEDAPPCCRLALGEPPPYGAAPIGIPRPPPPRPGMHSPPPRPAPSPGTWESQPARSVRLGGPGGGAGGAGGGRVLECPSIRITSISPTPEPPAALEDNPDAWGDGSPRDYPPPEGFGGYREAGGQGGGAFFSPSPGSSSLSSWSFFSDASDEAALYAACDEVESELNEAASRFGLGSPLPSPRASPRPWTPEDPWSLYGPSPGGRGPEDSWLLLSAPGPTPASPRPASPCGKRRYSSSGTPSSASPALSRRGSLGEEGSEPPPPPPLPLARDPGSPGPFDYVGAPPAESIPQKTRRTSSEQAVALPRSEEPASCNGKLPLGAEESVAPPGGSRKEVAGMDYLAVPSPLAWSKARIGGHSPIFRTSALPPLDWPLPSQYEQLELRIEVQPRAHHRAHYETEGSRGAVKAAPGGHPVVKLLGYSEKPLTLQMFIGTADERNLRPHAFYQVHRITGKMVATASYEAVVSGTKVLEMTLLPENNMAANIDCAGILKLRNSDIELRKGETDIGRKNTRVRLVFRVHVPQGGGKVVSVQAASVPIECSQRSAQELPQVEAYSPSACSVRGGEELVLTGSNFLPDSKVVFIERGPDGKLQWEEEATVNRLQSNEVTLTLTVPEYSNKRVSRPVQVYFYVSNGRRKRSPTQSFRFLPVICKEEPLPDSSLRGFPSASATPFGTDMDFSPPRPPYPSYPHEDPACETPYLSEGFGYGMPPLYPQTGPPPSYRPGLRMFPETRGTTGCAQPPAVSFLPRPFPSDPYGGRGSSFSLGLPFSPPAPFRPPPLPASPPLEGPFPSQSDVHPLPAEGYNKVGPGYGPGEGAPEQEKSRGGYSSGFRDSVPIQGITLEEVSEIIGRDLSGFPAPPGEEPPA
# B3: SCYL1 (protein, UniProt Q96KG9 1-808)
# chain: MWFFARDPVRDFPFELIPEPPEGGLPGPWALHRGRKKATGSPVSIFVYDVKPGAEEQTQVAKAAFKRFKTLRHPNILAYIDGLETEKCLHVVTEAVTPLGIYLKARVEAGGLKELEISWGLHQIVKALSFLVNDCSLIHNNVCMAAVFVDRAGEWKLGGLDYMYSAQGNGGGPPRKGIPELEQYDPPELADSSGRVVREKWSADMWRLGCLIWEVFNGPLPRAAALRNPGKIPKTLVPHYCELVGANPKVRPNPARFLQNCRAPGGFMSNRFVETNLFLEEIQIKEPAEKQKFFQELSKSLDAFPEDFCRHKVLPQLLTAFEFGNAGAVVLTPLFKVGKFLSAEEYQQKIIPVVVKMFSSTDRAMRIRLLQQMEQFIQYLDEPTVNTQIFPHVVHGFLDTNPAIREQTVKSMLLLAPKLNEANLNVELMKHFARLQAKDEQGPIRCNTTVCLGKIGSYLSASTRHRVLTSAFSRATRDPFAPSRVAGVLGFAATHNLYSMNDCAQKILPVLCGLTVDPEKSVRDQAFKAIRSFLSKLESVSEDPTQLEEVEKDVHAASSPGMGGAAASWAGWAVTGVSSLTSKLIRSHPTTAPTETNIPQRPTPEGVPAPAPTPVPATPTTSGHWETQEEDKDTAEDSSTADRWDDEDWGSLEQEAESVLAQQDDWSTGGQVSRASQVSNSDHKSSKSPESDWSSWEAEGSWEQGWQEPSSQEPPPDGTRLASEYNWGGPESSDKGDPFATLSARPSTQPRPDSWGEDNWEGLETDSRQVKAELARKKREERRREMEAKRAERKVAKGPMKLGARKLD
# Biological target: T1, Epstein-Barr virus (EBV) BGLF2 protein, FLAG-tagged (Epstein-Barr virus)
# Assay: affinity purification with mass spectrometry; BGLF2-FLAG expressed in 293T cells, recovered on M2 anti-FLAG resin from lysate in modified RIPA buffer (250 mM NaCl), 4 h at 4°C; co-purifying proteins by LC-MS/MS; two experiments, compared with empty FLAG plasmid and the CRAPome
row,Binder,binding
1,B1,binds
2,B2,binds
3,B3,binds

# Results are given in words; binding and its absence hold for the method and conditions named. In cells and extracts the contact can be indirect. Here binding means that the protein was enriched with, or labelled near, the bait; the list need not be complete. Tags and fused reporters may be left off the sequences shown.
